Substitutions are numbered along the chain they refer to. Results are given in words; binding and its absence hold for the method and conditions named. Some results given as binding are weak or reduced against the parent protein; the word gives no strength.
B1: CD137 antibody clone 001 (rabbit) (antibody, human IgG1, kappa, V domains shown)
VH: QSVEESGGRLVTPGTPLTLTCTVSGFSLSSYAVSWVRQAPGKGLEWIGVIWNNGATHYATWAKGRFTISKASTTVDLKVTSPTTEDTATYFCARSANDAWSTYSDLWGQGTLVTVSS
VL: DIVMTQTPASVEAAVGGTVTIKCQASQTITNYLSWYQQKPGQPPKLLIYKASTLTSGVSSRFKGSGSGTEFTLTISDLESDDAATYYCQNYYYGSSSGYGFVFGGGTEVVVKR
notes: also called Clone 1; CD137 clone 001
B2: CD137 antibody clone 002 (rabbit) (antibody, human IgG1, kappa, V domains shown)
VH: QSVEESGGRLVTPGTPLTLTCTVSGFSLTYYAVTWVRQPPGKGLEWIGVIYDNGATAFATWAKGRFTMSKNSTTVALKVTSPTTEDTATYFCARSANNAWSTYSNLWGQGTLVTVSS
VL: DIVMTQTPSSVSAAVGGTVTINCQASEDISSYLSWYQQKLGQPPKLLIYKASTLESGVPSRFKGSGSGTEYTLTISDLESDDAATYYCQSYYSGSISGYGFVFGGGTGVVVKR
notes: also called Clone 2; CD137 clone 002
B3: CD137 antibody clone 003 (rabbit) (antibody, human IgG1, kappa, V domains shown)
VH: QSVEESGGRLVTPGTPLTLTCTASGFTISSYHMIWVRQAPGEGLEWIGDIYGGTATTDYASWAKGRFTISKTSTTVDLKMTSLTTEDTATYFCARARYSGGSYANYVFNLWGQGTLVTVSS
VL: DIVMTQTPASVEAAVGGTVTIKCQASQSISSYLAWYQQKPGQPPKLLIYRTSTLESGVPSRFKGSGSGTEFTLTISDLESADAATYYCQGYDWSSSNRYDNTFGGGTEVVVKR
notes: also called Clone 3; CD137 clone 003
B4: CD137 antibody clone 004 (rabbit) (antibody, human IgG1, kappa, V domains shown)
VH: QSLEESGGRLVTPGTPLTLTCTASGFSLSRYDMSWVRQAPGKGLEYIGVISSSGGTNYANWAKGRFTISKTSTTVDLKITSPTTEDTATYFCAREGDYWDFNLWGPGTLVTVSS
VL: AQVLTQTPSSVSAAVGGTVTINCQASQSISNLLAWYQQKPGQPPKLLIYGASTLASGVPSRFSGSGSGTEFTLTISDLESDDAATYYCAGGFPGLDTVAAFGGGTEAVVTR
notes: also called Clone 4; CD137 clone 004
B5: CD137 antibody clone 006 (rabbit) (antibody, human IgG1, kappa, V domains shown)
VH: QSVEESGGRLVTPGTPLTLTCTVSGFSLSSYAMSWVRQAPGKGLEWIGIISTSGITYYASWAKGRFTISKTSTMVDLKITSPTTEDTATYFCARLNGFDDYVRYFDFWGLGTLVTVSS
VL: AIELTQTPSSVSAAVGGTVTINCQASESIASNLAWYQQKPGQPPKLLIYAASYLASGVPSRFKGSGSGTEYTLTISGVQSADAATYYCQSAFYVSSSDNAFGGGTEVVVKR
notes: also called Clone 6; CD137 clone 006
B6: CD137 antibody clone 007 (rabbit) (antibody, human IgG1, kappa, V domains shown)
VH: QSLEESGGRLVTPGTPLTLTCTASGFSLSSYDVSWVRQAPGKGLEYIGFIGSDGSAHYATWVKGRFTISKTSTTVDLKITSPTTEDTATYFCARDWNDYWAHDLWGPGTLVTVSS
VL: AQVLTQTTSPVSAAVGGTVTINCQASQIVTSKSALSWYQQKPGQPPRLLIYKASTLASGVPSRFSGSGSGTQFTLTISDLESDDAATYYCAGGYYNSGDLNPFGGGTEVVVKR
notes: also called Clone 7; CD137 clone 007
B7: CD137 antibody clone 008 (rabbit) (antibody, human IgG1, kappa, V domains shown)
VH: B4 VH with R30S, V49Y, G55N, N57Y, N60S, G64S
VL: B4 VL with P43R, K45R, G50R, S63K, D81E, V98G, A100T
notes: also called Clone 8; CD137 clone 008
B8: CD137 antibody clone 009 (rabbit) (antibody, human IgG1, kappa, V domains shown)
VH: QSLEESGGRLVTPGTPLTLTCTVSGFSLNDYWMSWVRQAPGKGLEWIGYIDVGGSLYYASWAKGRFTISRTSTTVDLKMTSLTTEDTATYFCARGGLTYGFDLWGPGTLVTVSS
VL: DIVMTQTPASVSEPVGGTVTINCQASEDISSYLAWYQQKPGQRPKRLIYGASDLASGVPSRFSASGSGTEYALTISDLESADAATYYCHYYATISGLGVAFGGGTEVVVKR
notes: also called Clone 9; CD137 clone 009
B9: CD137 antibody clone 010 (rabbit) (antibody, human IgG1, kappa, V domains shown)
VH: QSVEESGGRLVTPGTPLTLTCTVSGFSLSTYAMIWVRQAPGKGLEWIGVVYDNGYISHATWVKGRFTISKTSTTVGLEITSPTTEDTATYFCARSADGSWSTYFNLWGQGTLVTVSS
VL: DIVMTQTPASVEAAVGGTVTIKCQASESISNYLAWYQQKPGQPPKLLIYKASTLASGVSSRFKGSGSGTEFTLTISDLESADAATYYCQTNYCCSSSDNGFAFGGGTEVVVKR
notes: also called Clone 10; CD137 clone 010
B10: CD137 antibody clone 011 (rabbit) (antibody, human IgG1, kappa, V domains shown)
VH: QSLEESGGRLVTPGTPLTLTCTVSGIDLSSYHMCWVRQAPGKGLEYIGYIAYGGNTYYANWAKGRFTISKTSTTVDLRITSPTTEDTATYFCARGYSEDSYWGLWGPGTLVTVSS
VL: AYDMTQTPASVEAAVGGTVTIKCQASQNIENYLAWYQQKPGQPPKLLIYDTSKLTSGVPSRFSGSGSGTDFTLTISGVQSDDAATYYCQQDYGIIFVDNIFGGGTEVVVKR
notes: also called Clone 11; CD137 clone 011
B11: CD137 antibody clone 012 (rabbit) (antibody, human IgG1, kappa, V domains shown)
VH: QSVEESGGRLVTPGTPLTLTCTVSGFSLSDYYMTWVRQAPGKGLEYIGIMSGSGSTYYASWAKGRFTISKTSSTTLELKITSPTTEDTAIYFCARDGDYAGWGYATGAFDPWGPGTLVTVSS
VL: AAVLTQTPSPVSAAVGGTVTISCQASQSVVGNSLLSWFQKKPGQPPKLLIYSASSLASGVPSRFKGSGSGTQFTLTISDLESDDAATYYCTGRYNSDTDTFVFGGGTEVVVKR
notes: also called Clone 12; CD137 clone 012

Protein sequences, listed by entry. Tags and fused reporters are not part of them. Lines headed by an entry give the natural chain unless they say otherwise; changes in a name come on top.
UniProt Q07011: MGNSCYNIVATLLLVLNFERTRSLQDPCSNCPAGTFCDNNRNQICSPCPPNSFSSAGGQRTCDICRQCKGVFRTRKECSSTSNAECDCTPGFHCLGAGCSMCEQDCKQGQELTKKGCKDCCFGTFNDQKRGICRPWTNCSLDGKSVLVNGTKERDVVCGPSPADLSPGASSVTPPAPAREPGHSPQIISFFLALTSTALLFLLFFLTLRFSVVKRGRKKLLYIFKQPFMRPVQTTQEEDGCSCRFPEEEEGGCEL

target: Human CD137 shuffle 6 (amino acids 24-47 replaced by wild boar CD137) (human, amino acids 24-47 from wild boar) (UniProt Q07011); test: flow cytometry on transfected HEK293T-17 cells, 1 µg/mL antibody

binding, binds:
B1
B2
B3
B4
B5
B6
B7
B8
B9
B10
B11
